Over roughly 1,900 compounds, “excess over highest single agent (ExcessHSA) synergy score, 6x6 matrix” has its median near -83; the lowest 2% begin near -370. The list shows a part of the results.
System: NCI-H446
Test: excess over highest single agent (ExcessHSA) synergy score, 6x6 matrix; higher = less synergy (more negative = stronger synergy)
Conditions: 72 h; CellTiter-Glo viability

Row | Structure (SMILES) | excess over highest single agent
1 | CNS(=O)(=O)CCc1ccc2[nH]cc(C3CCN(C)CC3)c2c1 + Cc1sc2c(c1C)C(c1ccc(Cl)cc1)=N[C@@H](CC(=O)OC(C)(C)C)c1nnc(C)n1-2 [NCGC00250412-19] | -72.2
2 | CC(=O)Oc1ccccc1C(=O)O + Cc1sc2c(c1C)C(c1ccc(Cl)cc1)=N[C@@H](CC(=O)OC(C)(C)C)c1nnc(C)n1-2 [NCGC00250412-19] | 280
3 | COc1ccc2ccc(=O)oc2c1CC=C(C)C + Cc1sc2c(c1C)C(c1ccc(Cl)cc1)=N[C@@H](CC(=O)OC(C)(C)C)c1nnc(C)n1-2 [NCGC00250412-19] | -52.7
4 | O=C(Nc1nc2cccc(-c3ccc(CN4CCS(=O)(=O)CC4)cc3)n2n1)C1CC1 + Cc1sc2c(c1C)C(c1ccc(Cl)cc1)=N[C@@H](CC(=O)OC(C)(C)C)c1nnc(C)n1-2 [NCGC00250412-19] | 134
5 | CC1=C(/C=C/C(C)=C/C=C/C(C)=C/C(=O)O)C(C)(C)CCC1 + Cc1sc2c(c1C)C(c1ccc(Cl)cc1)=N[C@@H](CC(=O)OC(C)(C)C)c1nnc(C)n1-2 [NCGC00250412-19] | -131
6 | C[C@]12CC[C@H](O)CC1=CC[C@@H]1[C@@H]2CC[C@]2(C)C(n3cnc4ccccc43)=CC[C@@H]12 + Cc1sc2c(c1C)C(c1ccc(Cl)cc1)=N[C@@H](CC(=O)OC(C)(C)C)c1nnc(C)n1-2 [NCGC00250412-19] | -225
7 | Cc1c(C(=O)c2cccc3ccccc23)c2cccc3c2n1[C@H](CN1CCOCC1)CO3 + Cc1sc2c(c1C)C(c1ccc(Cl)cc1)=N[C@@H](CC(=O)OC(C)(C)C)c1nnc(C)n1-2 [NCGC00250412-19] | -99.1
8 | CC(C)=CC[C@@H](O)C1=CC(=O)c2c(O)ccc(O)c2C1=O + Cc1sc2c(c1C)C(c1ccc(Cl)cc1)=N[C@@H](CC(=O)OC(C)(C)C)c1nnc(C)n1-2 [NCGC00250412-19] | -344
9 | Cc1c(C)c2c(c(C)c1O)CCC(C)(COc1ccc(CC3SC(=O)NC3=O)cc1)O2 (stereo not given) + Cc1sc2c(c1C)C(c1ccc(Cl)cc1)=N[C@@H](CC(=O)OC(C)(C)C)c1nnc(C)n1-2 [NCGC00250412-19] | -122
10 | COC(=O)C1=C(C)NC(C)=C(C(=O)OCCN2CCN(C(c3ccccc3)c3ccccc3)CC2)C1c1cccc([N+](=O)[O-])c1 (stereo not given) + Cc1sc2c(c1C)C(c1ccc(Cl)cc1)=N[C@@H](CC(=O)OC(C)(C)C)c1nnc(C)n1-2 [NCGC00250412-19] | -160
11 | COC(c1ccccc1)(c1ccccc1)[C@H](Oc1nc(C)cc(C)n1)C(=O)O + Cc1sc2c(c1C)C(c1ccc(Cl)cc1)=N[C@@H](CC(=O)OC(C)(C)C)c1nnc(C)n1-2 [NCGC00250412-19] | 10.3
12 | CC(C)(C)C(=O)Oc1ccc(S(=O)(=O)Nc2ccccc2C(=O)NCC(=O)O)cc1 + Cc1sc2c(c1C)C(c1ccc(Cl)cc1)=N[C@@H](CC(=O)OC(C)(C)C)c1nnc(C)n1-2 [NCGC00250412-19] | -65
13 | C[N+]1(C)[C@@H]2C[C@@H](OC(=O)C(O)(c3cccs3)c3cccs3)C[C@H]1[C@@H]1O[C@@H]12 + Cc1sc2c(c1C)C(c1ccc(Cl)cc1)=N[C@@H](CC(=O)OC(C)(C)C)c1nnc(C)n1-2 [NCGC00250412-19] | -5.31
14 | Cc1cc(C(C)(C)C)c(O)c(C)c1CC1=NCCN1 + Cc1sc2c(c1C)C(c1ccc(Cl)cc1)=N[C@@H](CC(=O)OC(C)(C)C)c1nnc(C)n1-2 [NCGC00250412-19] | 43.2
15 | Oc1ccc2c3c1O[C@H]1c4[nH]c5c(c4C[C@@]4(O)[C@@H](C2)N(CC2CC2)CC[C@]314)C[C@@]1(O)[C@H]2Cc3ccc(O)c4c3[C@@]1(CCN2CC1CC1)[C@H]5O4 + Cc1sc2c(c1C)C(c1ccc(Cl)cc1)=N[C@@H](CC(=O)OC(C)(C)C)c1nnc(C)n1-2 [NCGC00250412-19] | -137
16 | O=c1cc(N2CCOCC2)oc2c(-c3cccc4c3sc3ccccc34)cccc12 + Cc1sc2c(c1C)C(c1ccc(Cl)cc1)=N[C@@H](CC(=O)OC(C)(C)C)c1nnc(C)n1-2 [NCGC00250412-19] | -318
17 | Cc1cc(NC(=O)Nc2ccc(N(C)C)cc2)c2cc(F)cc(F)c2n1 + Cc1sc2c(c1C)C(c1ccc(Cl)cc1)=N[C@@H](CC(=O)OC(C)(C)C)c1nnc(C)n1-2 [NCGC00250412-19] | -82.8
18 | Cn1cc(-c2ccc3ncc(Cc4ccc5ncccc5c4)n3n2)cn1 + Cc1sc2c(c1C)C(c1ccc(Cl)cc1)=N[C@@H](CC(=O)OC(C)(C)C)c1nnc(C)n1-2 [NCGC00250412-19] | -121
19 | CC1C(=O)OC2C(O)C34C5CC(C(C)(C)C)C36C(OC(=O)C6O)OC4(C(=O)O5)C12O (stereo not given) + Cc1sc2c(c1C)C(c1ccc(Cl)cc1)=N[C@@H](CC(=O)OC(C)(C)C)c1nnc(C)n1-2 [NCGC00250412-19] | -82.9
20 | CN(C)/N=N/c1[nH]cnc1C(N)=O + Cc1sc2c(c1C)C(c1ccc(Cl)cc1)=N[C@@H](CC(=O)OC(C)(C)C)c1nnc(C)n1-2 [NCGC00250412-19] | -81.2
21 | O=C(O)c1cccnc1Nc1cccc(C(F)(F)F)c1 + Cc1sc2c(c1C)C(c1ccc(Cl)cc1)=N[C@@H](CC(=O)OC(C)(C)C)c1nnc(C)n1-2 [NCGC00250412-19] | 33
22 | Cc1oncc1C(=O)Nc1ccc(C(F)(F)F)cc1 + Cc1sc2c(c1C)C(c1ccc(Cl)cc1)=N[C@@H](CC(=O)OC(C)(C)C)c1nnc(C)n1-2 [NCGC00250412-19] | -68.6
23 | NC1(C(=O)N[C@@H](CCO)c2ccc(Cl)cc2)CCN(c2ncnc3[nH]ccc23)CC1 + Cc1sc2c(c1C)C(c1ccc(Cl)cc1)=N[C@@H](CC(=O)OC(C)(C)C)c1nnc(C)n1-2 [NCGC00250412-19] | -281
24 | Cc1cn([C@H]2O[C@@H](CO)[C@H](O)[C@H]2F)c(=O)[nH]c1=O + Cc1sc2c(c1C)C(c1ccc(Cl)cc1)=N[C@@H](CC(=O)OC(C)(C)C)c1nnc(C)n1-2 [NCGC00250412-19] | -80.3
25 | CC(C)c1ccc2oc3nc(N)c(C(=O)O)cc3c(=O)c2c1 + Cc1sc2c(c1C)C(c1ccc(Cl)cc1)=N[C@@H](CC(=O)OC(C)(C)C)c1nnc(C)n1-2 [NCGC00250412-19] | -73.2
